Patent US20030119027

Key:
[1] = target: T1, PacI (Pseudomonas alcaligenes) (UniProt D5MNX7); experiment: enzyme reaction in vitro; conditions: pattern identical to authentic PacI; protein translated in vitro; protein details: wheat germ translation, gene from NEB 585
T1 sequence (looked up, limits assumed): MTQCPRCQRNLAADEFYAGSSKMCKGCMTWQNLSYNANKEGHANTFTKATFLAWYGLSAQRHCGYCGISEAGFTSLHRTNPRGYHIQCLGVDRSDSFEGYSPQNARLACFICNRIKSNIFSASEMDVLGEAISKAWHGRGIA

[2] = target: T2, MjaIII (MJ0600) (Methanococcus jannaschii) (UniProt Q58017); experiment: enzyme reaction in vitro; conditions: MboI isoschizomer; protein in a lysate after overexpression; only the motif is given
T2 sequence (looked up): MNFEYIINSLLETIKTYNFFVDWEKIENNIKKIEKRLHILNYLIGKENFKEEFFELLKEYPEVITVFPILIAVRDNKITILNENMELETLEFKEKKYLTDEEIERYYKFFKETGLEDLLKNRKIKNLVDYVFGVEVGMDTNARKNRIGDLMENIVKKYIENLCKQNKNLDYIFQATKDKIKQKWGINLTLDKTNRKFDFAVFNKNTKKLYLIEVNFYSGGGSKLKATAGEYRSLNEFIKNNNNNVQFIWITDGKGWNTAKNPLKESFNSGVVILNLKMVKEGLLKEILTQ

[3] = target: T3, M.MjaV (MJ1498 methyltransferase) (Methanococcus jannaschii) (UniProt Q58893); experiment: activity in cells; conditions: methylation in E. coli protects pSYX20 clone from RsaI; GTAC could be a subset of target; protein in cells; only the motif is given
T3 sequence (looked up): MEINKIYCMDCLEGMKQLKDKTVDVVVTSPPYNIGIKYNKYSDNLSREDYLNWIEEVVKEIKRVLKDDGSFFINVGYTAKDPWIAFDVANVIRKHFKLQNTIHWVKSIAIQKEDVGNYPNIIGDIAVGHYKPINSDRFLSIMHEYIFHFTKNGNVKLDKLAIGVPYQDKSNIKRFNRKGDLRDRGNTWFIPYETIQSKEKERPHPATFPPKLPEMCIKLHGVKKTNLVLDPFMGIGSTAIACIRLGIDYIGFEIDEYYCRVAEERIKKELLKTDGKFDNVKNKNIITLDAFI

[4] = target: T4, MjaI (MJ0984) (Methanococcus jannaschii) (UniProt Q58391); experiment: enzyme reaction in vitro; conditions: NEB buffer 4 (10 mM Mg acetate), 37 C overnight; pattern identical to BfaI; protein translated in vitro; only the motif is given
T4 sequence (looked up): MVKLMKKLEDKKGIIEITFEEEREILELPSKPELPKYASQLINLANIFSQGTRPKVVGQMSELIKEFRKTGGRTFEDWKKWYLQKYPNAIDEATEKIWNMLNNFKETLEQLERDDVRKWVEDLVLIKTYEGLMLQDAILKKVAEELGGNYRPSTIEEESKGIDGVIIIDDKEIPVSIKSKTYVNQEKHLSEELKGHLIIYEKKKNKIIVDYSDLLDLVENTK

[5] = test system: NlaIII (Neisseria lactamica); experiment: enzyme reaction in vitro; conditions: crude lysate, activity consistent with R.NlaIII; protein in a lysate after overexpression; protein details: pLT7-NlaIII in E. coli ER2566P; only the motif is given

TTAATTAA (double strand) [PacI site]
activity on this sequence [1]: active

GATC (double strand) [GATC site]
activity on this sequence [2]: active

GTAC (double strand) [GTAC site]
activity on this sequence [3]: active

CTAG (double strand) [CTAG site (lambda DNA)]
activity on this sequence [4]: active

CATG (double strand) [NlaIII site]
activity on this sequence [5]: active

For some assays here: Protein sequences can lack the tags named with them. For some assays here: For at least one entry, the source does not settle the construct or the ends of the probe.
